# In patent EP4282435A1, “FORMULATIONS OF ACTIVE PHARMACEUTICAL INGREDIENTS AND EXCIPIENTS IN ICELLS VIA HYDROPHOBIC ION PAIRING” (Danmarks Tekniske Universitet, priority 2022, dated 2023):
# Not every detail of the peptide structures is certain; ends, links or a residue may be inferred.
# Experiment: HIP complexation of SIINFEKL with SDS (HPLC of supernatant)
# Format: physicochemical
# Protocol: (1.5 mg/mL) was dissolved in 0.01 M HCI. […] The […] and co-ion solution were mixed in equal volumes, followed by shaking and centrifugation steps as described in method 1 of example 2. The supernatant was removed the content of […] was evaluated by HPLC.
# HPLC method: Samples were analyzed on a Shimadzu Nexera-X with PDA. Samples were injected (40 µL) onto a Waters Terra XBridge BEH C8 column (2.5 µm, 4.6x150mm, temperature 25 °C) at a flow rate of 1 mL/min. The solvent system consisted of mobile phase A (5% MeCN, 0.1% TFA in water) and mobile phase B (0.1% TFA in MeCN). The gradient was 0% B for 1.5 min, 0 to 100% B in 7 min, 100% B for 1.5 min, 100% B to 0% B in 0.5 min, 0% B for 1.5 min. […] was quantified by UV at 220 nm.
smiles,measurement,setting,value
CC[C@H](C)[C@H](NC(=O)[C@@H](NC(=O)[C@@H](N)CO)[C@@H](C)CC)C(=O)N[C@@H](CC(N)=O)C(=O)N[C@@H](Cc1ccccc1)C(=O)N[C@@H](CCC(=O)O)C(=O)N[C@@H](CCCCN)C(=O)N[C@@H](CC(C)C)C(=O)O [SIINFEKL],SIINFEKL detected in the resulting supernatant,"of the total SIINFEKL, after complexation with SDS",2%
same,SIINFEKL complexed with SDS,"organic-solvent free method, 1:1 charge ratio, n=3",98%
